Laboratory results: the supplement of paper PMC5949888
Most values lie at the floor of the assay. Slopes are relative: functional sequences can read slightly below zero.

System: Saccharomyces cerevisiae PS128 hsf1 delta, HSF1(1-493) fusion
Experiment: growth estimate (transactivation domain function in HSF1 fusion, heat-shock survival) (a.u. (slope of normalised read count over time)); higher = stronger growth at 37°C, i.e. more transactivation activity
Conditions: library: random library
Method: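 Random 60-nt DNA library encoding peptides of up to 20 aa, fused to the C-terminus of yeast HSF1 residues 1-493 (C-terminal TAD deleted) and expressed from the native HSF1 promoter on a CEN plasmid in hsf1-deleted S. cerevisiae PS128. Cells were selected at 37°C on -trp 5-FOA plates for 0, 2, 4, 6 and 8 days and amplicons were sequenced. Growth estimate is the slope of a robust linear fit of total-sum-normalised read counts (normalised to the first time point) over time, using at least 2 replicates. Sequences are classed functional (TAD activity) above a threshold of -0.13, set from stop-codon control sequences.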

For GDATKVGLGESVGTGRTTRQ, which growth estimate is on record?
Its growth estimate is less than -0.25.

With GDAWGLGHEPGSIWDPRS as the substance, how does the growth estimate read?
The growth estimate was -0.195.

How did the growth estimate turn out when GDCRSECGSLIVDEAVKRAL was run?
Its growth estimate is less than -0.25.

With GDDSAESRG as the substance, how does the growth estimate read?
The growth estimate was less than -0.25.

Which growth estimate does the source give for GDFDY here?
Its growth estimate is less than -0.25.

For GDFSLRHSAHGYEGWIVRVS, which growth estimate is on record?
The growth estimate was less than -0.25.

How did the growth estimate turn out when GDGMSCRFTQRKTLHAQVRA was run?
Its growth estimate is less than -0.25.

For GDHRQSTQRVGSSRSMRGK, which growth estimate is on record?
The growth estimate was less than -0.25.

Which growth estimate does the source give for GDLFRLRIPLL here?
Its growth estimate is less than -0.25.

With GDLPCVPGSVYSGTCDRMEA as the substance, how does the growth estimate read?
The growth estimate was less than -0.25.

With GDMLPSKRGMFGGGVDYGFS as the substance, how does the growth estimate read?
The growth estimate was less than -0.25.

GDMPSTSSSQILDSQIKCRV was tested. Which growth estimate did it give?
Its growth estimate is less than -0.25.

How did the growth estimate turn out when GDRLR was run?
The growth estimate was less than -0.25.

Which growth estimate does the source give for GDRLTEGTCL here?
The growth estimate was less than -0.25.

How did the growth estimate turn out when GDRTKGSGLCCRNLAGHWPQ was run?
The growth estimate was less than -0.25.

With GDSGGHVHGKRAHWYLKQDL as the substance, how does the growth estimate read?
Its growth estimate is less than -0.25.

GDSLTRW was tested. Which growth estimate did it give?
The growth estimate was less than -0.25.

GDSPYGAGRA was tested. Which growth estimate did it give?
The growth estimate was less than -0.25.

For GDYGSVRES, which growth estimate is on record?
The growth estimate was less than -0.25.

GEAFVANLSQ was tested. Which growth estimate did it give?
Its growth estimate is -0.248.

Which growth estimate does the source give for GEALLEI here?
Its growth estimate is less than -0.25.

Which growth estimate does the source give for GEAS here?
The growth estimate was less than -0.25.

GEAVP was tested. Which growth estimate did it give?
Its growth estimate is less than -0.25.

How did the growth estimate turn out when GECSAKSGSVGGSQNPMALS was run?
The growth estimate was less than -0.25.

Which growth estimate does the source give for GECSP here?
The growth estimate was -0.248.

GEDPAN was tested. Which growth estimate did it give?
The growth estimate was less than -0.25.

For GEFSSIAFMLWREVVTGTAY, which growth estimate is on record?
The growth estimate was less than -0.25.

Which growth estimate does the source give for GEGERVCVSVISTMRARWSC here?
The growth estimate was less than -0.25.

How did the growth estimate turn out when GEGRLAEFFYALDTHLRVTC was run?
Its growth estimate is less than -0.25.

GEGSFNSAVDHDVPVRLYLF was tested. Which growth estimate did it give?
The growth estimate was less than -0.253.

Which growth estimate does the source give for GEHELLFEVFFGWGCFVKSC here?
The growth estimate was less than -0.25.

GEHGPKVLPAMAWHDG was tested. Which growth estimate did it give?
The growth estimate was less than -0.25.

Which growth estimate does the source give for GEHI here?
The growth estimate was less than -0.25.

GEIGYL was tested. Which growth estimate did it give?
The growth estimate was -0.246.

Which growth estimate does the source give for GEIRPAIAHS here?
The growth estimate was less than -0.25.

With GEKPPALVLISCSGVAFIGA as the substance, how does the growth estimate read?
Its growth estimate is less than -0.25.

For GEKTKLIAKP, which growth estimate is on record?
The growth estimate was less than -0.25.

With GEKVAYNRSASQDGARLRGR as the substance, how does the growth estimate read?
Its growth estimate is less than -0.25.

How did the growth estimate turn out when GELEFWRLSDAISRHVHSGS was run?
The growth estimate was less than -0.25.

With GELGDMAPTRVCGEWNVVAT as the substance, how does the growth estimate read?
The growth estimate was less than -0.25.

For GEMGINILRRLLGHRMRTNT, which growth estimate is on record?
The growth estimate was less than -0.25.

GEPESQTSITAYERVNHAST was tested. Which growth estimate did it give?
The growth estimate was less than -0.25.

How did the growth estimate turn out when GEPNLTKCVLPGPSVRLRAP was run?
The growth estimate was less than -0.25.

Which growth estimate does the source give for GEPQLSEHLLSHRREVLAMA here?
Its growth estimate is less than -0.25.

For GEQLSGIATPESGCALGR, which growth estimate is on record?
The growth estimate was -0.245.

For GEQYQELTLKVSLHGISAAI, which growth estimate is on record?
The growth estimate was less than -0.25.

For GERACGGFNHII, which growth estimate is on record?
Its growth estimate is less than -0.25.

Which growth estimate does the source give for GEREFGALVNTLN here?
Its growth estimate is less than -0.25.

With GESESQREGSGERSFISRAF as the substance, how does the growth estimate read?
The growth estimate was less than -0.25.

Which growth estimate does the source give for GESWRWTLAWRDGQVCAI here?
The growth estimate was less than -0.25.

With GETAKVSSLVSDLGLSQMPS as the substance, how does the growth estimate read?
The growth estimate was less than -0.25.

For GETISAGVACAQMYCYPRGP, which growth estimate is on record?
Its growth estimate is less than -0.25.

Which growth estimate does the source give for GETWRRLFSSISAWSLPDIR here?
The growth estimate was less than -0.25.

How did the growth estimate turn out when GEVLP was run?
Its growth estimate is less than -0.25.

For GEWVPRGAWHSNCLAHSSLI, which growth estimate is on record?
The growth estimate was less than -0.25.

How did the growth estimate turn out when GEYDCVTALIAGPKHVAYFG was run?
The growth estimate was less than -0.25.

How did the growth estimate turn out when GEYHPNTYNSLREGFTHNIW was run?
Its growth estimate is less than -0.25.

How did the growth estimate turn out when GEYQR was run?
The growth estimate was less than -0.25.

With GEYSSFAVWLRPEVDFLEGT as the substance, how does the growth estimate read?
Its growth estimate is -0.0514.

For GFANDVRPYRGLCVYLLLHP, which growth estimate is on record?
Its growth estimate is less than -0.25.

For GFCDSPMT, which growth estimate is on record?
The growth estimate was less than -0.25.

With GFCGPDVLGSSRCTELHLLR as the substance, how does the growth estimate read?
The growth estimate was less than -0.25.

Which growth estimate does the source give for GFERFSASLLRLCYGFDALQ here?
Its growth estimate is -0.246.

GFETLIEGNNDTNGLLKGPS was tested. Which growth estimate did it give?
The growth estimate was less than -0.25.

With GFGMSQ as the substance, how does the growth estimate read?
Its growth estimate is less than -0.25.

GFGYKDNRFGLTIRMPYGRD was tested. Which growth estimate did it give?
The growth estimate was less than -0.25.

Which growth estimate does the source give for GFIAMPRLS here?
The growth estimate was less than -0.25.

For GFKGLVRVLQWETGLDPRRK, which growth estimate is on record?
Its growth estimate is less than -0.25.

For GFKGWRTYAHFTAECLKDRG, which growth estimate is on record?
The growth estimate was less than -0.25.

Which growth estimate does the source give for GFLVFT here?
The growth estimate was less than -0.25.

Which growth estimate does the source give for GFNGIFTPFETK here?
The growth estimate was less than -0.25.

Which growth estimate does the source give for GFPKKCRRRWTHPN here?
Its growth estimate is less than -0.25.
